Results published in paper PMC12074021.
Results are given in words; binding and its absence hold for the method and conditions named. Binding seen in cells or lysates may run through a third protein. Some binding calls cover weakened binding; strength is not graded here.

By UniProt entry, the sequences of proteins in these tests, tags left out.
UniProt Q9ES90: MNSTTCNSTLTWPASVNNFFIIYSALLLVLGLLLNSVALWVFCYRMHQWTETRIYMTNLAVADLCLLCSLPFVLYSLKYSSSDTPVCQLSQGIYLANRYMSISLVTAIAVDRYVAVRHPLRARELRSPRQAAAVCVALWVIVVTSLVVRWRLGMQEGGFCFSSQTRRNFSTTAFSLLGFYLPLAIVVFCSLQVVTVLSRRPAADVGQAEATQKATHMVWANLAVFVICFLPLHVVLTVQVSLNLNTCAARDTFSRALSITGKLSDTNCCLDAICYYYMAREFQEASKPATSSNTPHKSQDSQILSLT
UniProt Q9EPK8: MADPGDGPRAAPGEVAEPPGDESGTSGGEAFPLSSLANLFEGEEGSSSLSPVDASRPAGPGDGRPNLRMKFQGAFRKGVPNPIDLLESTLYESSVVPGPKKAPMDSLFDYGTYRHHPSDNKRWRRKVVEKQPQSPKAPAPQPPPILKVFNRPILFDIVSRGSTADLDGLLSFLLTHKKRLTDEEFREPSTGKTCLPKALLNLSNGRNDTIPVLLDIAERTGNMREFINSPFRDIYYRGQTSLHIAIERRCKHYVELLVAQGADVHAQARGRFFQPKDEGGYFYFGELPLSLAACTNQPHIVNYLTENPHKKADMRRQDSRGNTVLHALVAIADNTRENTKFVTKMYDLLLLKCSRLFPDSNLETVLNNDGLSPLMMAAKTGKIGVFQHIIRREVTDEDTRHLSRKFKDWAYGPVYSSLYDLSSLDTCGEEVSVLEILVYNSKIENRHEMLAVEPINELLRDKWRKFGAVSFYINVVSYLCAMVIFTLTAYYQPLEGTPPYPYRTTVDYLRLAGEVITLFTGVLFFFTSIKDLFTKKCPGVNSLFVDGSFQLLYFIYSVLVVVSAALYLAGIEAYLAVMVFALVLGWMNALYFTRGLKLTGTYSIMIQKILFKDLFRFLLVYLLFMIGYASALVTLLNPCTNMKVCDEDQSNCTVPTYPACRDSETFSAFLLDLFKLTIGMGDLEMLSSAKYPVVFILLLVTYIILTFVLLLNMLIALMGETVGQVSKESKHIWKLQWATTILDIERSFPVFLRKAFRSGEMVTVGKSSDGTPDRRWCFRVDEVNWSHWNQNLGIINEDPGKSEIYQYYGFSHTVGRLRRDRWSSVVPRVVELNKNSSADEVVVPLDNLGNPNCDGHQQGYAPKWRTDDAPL

Columns and labels:
[1] = biological target: G protein-coupled receptor 35 (GPR35) (mouse (endogenous in primary mesenteric artery ECs)) (UniProt Q9ES90); experiment: proximity ligation; Duolink PLA on fixed, permeabilised primary mesenteric ECs from WT-young and WT-aging mice (TRPV4EC-/- and AAV-FLT1-shRNA (GPR35) ECs as controls); aging ECs also treated with Thonningianin A (10 μM) or Carfilzomib (1 μM)
[2] = biological target: G protein-coupled receptor 35 (GPR35) (mouse (endogenous in primary mesenteric artery ECs)) (UniProt Q9ES90); experiment: co-IP; lysates of primary mesenteric ECs from WT-young and WT-aging mice; IP buffer 50 mmol/L Tris-HCl pH 7.4, 150 mmol/L NaCl, 0.3% NP-40, 2 mmol/L EDTA; IP with anti-GPR35 antibody or control IgG overnight at 4°C, IB with anti-TRPV4 antibody; aging ECs also incubated with Thonningianin A (10 μM), Carfilzomib (1 μM), Naringin (10 μM), Diosmin (10 μM) or Navitoclax (1 μM) for 30 min before harvest

## Transient receptor potential channel V4 (TRPV4) (from UniProt Q9EPK8 1-871)
[1]
  binding: binds
[2]
  binding: binds
